{"source": "PubChem BioAssay AID1224828 – NIAID – 2016", "screen": "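Find genes required for NF-kappaB p65 moving into the nucleus after LPS in mouse macrophages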 (primary screen)", "cell system": "mouse RAW264.7 G9 macrophage reporter cells (GFP-p65, Tnf promoter-mCherry)", "reagent": "siRNA pool against mouse genes, 100 nM", "duration": "2 days siRNA transfection, then 40 min LPS before fixation", "challenge": "LPS (Salmonella minnesota R595) at 10 ng/ml", "measured": "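Microscopy ratio of nuclear to perinuclear-ring GFP-p65 signal, scaled to the plate median; gene score is the average of two replicate robust z-scores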", "direction": "p65 translocation robust z-score: higher = more nuclear NF-kappaB p65 after LPS than the plate median; nuclear/cytoplasmic p65 ratio: higher = more nuclear NF-kappaB p65", "call rule": "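Active if robust z is above 3.3 (negative regulators) or below -1.56, the Tlr4 control median (positive regulators); activity score 50 or more; control wells not called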", "meaning of the calls": "active = hit (p65 shift raised or lowered); inactive = no clear change", "note": "In all, the deposit lists about 17,000 reagents; shown is a part drawn at random. 762 of them (4.5%) count as active. 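Active calls include both raised and lowered p65 entry, mostly lowered; wells with fewer than 50 cells lack a z-score.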 Raw values vary from plate to plate and are shown uncorrected. A number with no mark means an inactive call."}
{"gene knocked down": "Obox2", "p65 translocation robust z-score": 0.62, "nuclear/cytoplasmic p65 ratio, rep 1": 1.82, "nuclear/cytoplasmic p65 ratio, rep 2": 1.62, "low cell count flag": "enough cells to score"}
{"gene knocked down": "Rpsa", "p65 translocation robust z-score": -1.01, "nuclear/cytoplasmic p65 ratio, rep 1": 1.32, "nuclear/cytoplasmic p65 ratio, rep 2": 1.27, "low cell count flag": "enough cells to score"}
{"gene knocked down": "Zfp652", "p65 translocation robust z-score": -0.07, "nuclear/cytoplasmic p65 ratio, rep 1": 1.36, "nuclear/cytoplasmic p65 ratio, rep 2": 1.6, "low cell count flag": "enough cells to score"}
{"gene knocked down": "Mical1", "p65 translocation robust z-score": 1.11, "nuclear/cytoplasmic p65 ratio, rep 1": 1.85, "nuclear/cytoplasmic p65 ratio, rep 2": 1.72, "low cell count flag": "enough cells to score"}
{"gene knocked down": "Clip2", "p65 translocation robust z-score": -0.27, "nuclear/cytoplasmic p65 ratio, rep 1": 1.38, "nuclear/cytoplasmic p65 ratio, rep 2": 1.4, "low cell count flag": "enough cells to score"}
{"gene knocked down": "Glt1d1", "p65 translocation robust z-score": 0.95, "nuclear/cytoplasmic p65 ratio, rep 1": 1.33, "nuclear/cytoplasmic p65 ratio, rep 2": 1.59, "low cell count flag": "enough cells to score"}
{"gene knocked down": "Sparc", "p65 translocation robust z-score": -0.89, "nuclear/cytoplasmic p65 ratio, rep 1": 1.36, "nuclear/cytoplasmic p65 ratio, rep 2": 1.48, "low cell count flag": "enough cells to score"}
{"gene knocked down": "Fzd8", "p65 translocation robust z-score": 0.9, "nuclear/cytoplasmic p65 ratio, rep 1": 1.58, "nuclear/cytoplasmic p65 ratio, rep 2": 1.77, "low cell count flag": "enough cells to score"}
{"gene knocked down": "Csnk1d", "p65 translocation robust z-score": -1.47, "nuclear/cytoplasmic p65 ratio, rep 1": 1.43, "nuclear/cytoplasmic p65 ratio, rep 2": 1.22, "low cell count flag": "enough cells to score"}
{"gene knocked down": "Vmn1r-ps8", "p65 translocation robust z-score": 2.61, "nuclear/cytoplasmic p65 ratio, rep 1": 1.69, "nuclear/cytoplasmic p65 ratio, rep 2": 1.55, "low cell count flag": "enough cells to score"}
{"gene knocked down": "Krt90", "nuclear/cytoplasmic p65 ratio, rep 1": 1.3, "nuclear/cytoplasmic p65 ratio, rep 2": 1.28, "low cell count flag": "fewer than 50 cells per well; well left out of scoring"}
{"gene knocked down": "Snd1", "p65 translocation robust z-score": 0.62, "nuclear/cytoplasmic p65 ratio, rep 1": 1.79, "nuclear/cytoplasmic p65 ratio, rep 2": 1.68, "low cell count flag": "enough cells to score"}
{"gene knocked down": "Timm17a", "p65 translocation robust z-score": 0.29, "nuclear/cytoplasmic p65 ratio, rep 1": 1.35, "nuclear/cytoplasmic p65 ratio, rep 2": 1.27, "low cell count flag": "enough cells to score"}
{"gene knocked down": "Tbx2", "p65 translocation robust z-score": -1.52, "nuclear/cytoplasmic p65 ratio, rep 1": 1.24, "nuclear/cytoplasmic p65 ratio, rep 2": 1.37, "low cell count flag": "enough cells to score"}
{"gene knocked down": "Ufl1", "nuclear/cytoplasmic p65 ratio, rep 1": 1.31, "nuclear/cytoplasmic p65 ratio, rep 2": 1.26, "low cell count flag": "fewer than 50 cells per well; well left out of scoring"}
{"gene knocked down": "Sar1b", "p65 translocation robust z-score": 0.58, "nuclear/cytoplasmic p65 ratio, rep 1": 1.5, "nuclear/cytoplasmic p65 ratio, rep 2": 1.28, "low cell count flag": "enough cells to score"}
{"gene knocked down": "Krt81", "p65 translocation robust z-score": -1.55, "nuclear/cytoplasmic p65 ratio, rep 1": 1.3, "nuclear/cytoplasmic p65 ratio, rep 2": 1.15, "low cell count flag": "enough cells to score"}

Reformatted: entries from further up
gene knocked down,p65 translocation robust z-score,"nuclear/cytoplasmic p65 ratio, rep 1","nuclear/cytoplasmic p65 ratio, rep 2",low cell count flag
Glt1d1,0.95,1.33,1.59,enough cells to score
Sparc,-0.89,1.36,1.48,enough cells to score

Next records:
{"gene knocked down": "Magt1", "p65 translocation robust z-score": 2.07, "nuclear/cytoplasmic p65 ratio, rep 1": 1.67, "nuclear/cytoplasmic p65 ratio, rep 2": 1.85, "low cell count flag": "enough cells to score"}
{"gene knocked down": "Hdac2", "p65 translocation robust z-score": -0.56, "nuclear/cytoplasmic p65 ratio, rep 1": 1.33, "nuclear/cytoplasmic p65 ratio, rep 2": 1.32, "low cell count flag": "enough cells to score"}
{"gene knocked down": "Arx", "p65 translocation robust z-score": 1.87, "nuclear/cytoplasmic p65 ratio, rep 1": 1.88, "nuclear/cytoplasmic p65 ratio, rep 2": 1.92, "low cell count flag": "enough cells to score"}
{"gene knocked down": "Agap3", "p65 translocation robust z-score": 0.1, "nuclear/cytoplasmic p65 ratio, rep 1": 1.64, "nuclear/cytoplasmic p65 ratio, rep 2": 1.77, "low cell count flag": "enough cells to score"}
{"gene knocked down": "Glcci1", "p65 translocation robust z-score": 1.74, "nuclear/cytoplasmic p65 ratio, rep 1": 1.79, "nuclear/cytoplasmic p65 ratio, rep 2": 1.75, "low cell count flag": "enough cells to score"}
{"gene knocked down": "Oas1h", "p65 translocation robust z-score": -0.02, "nuclear/cytoplasmic p65 ratio, rep 1": 1.71, "nuclear/cytoplasmic p65 ratio, rep 2": 1.52, "low cell count flag": "enough cells to score"}
{"gene knocked down": "Kctd7", "p65 translocation robust z-score": -0.41, "nuclear/cytoplasmic p65 ratio, rep 1": 1.38, "nuclear/cytoplasmic p65 ratio, rep 2": 1.39, "low cell count flag": "enough cells to score"}
{"gene knocked down": "Tmed9", "p65 translocation robust z-score": -1.09, "nuclear/cytoplasmic p65 ratio, rep 1": 1.22, "nuclear/cytoplasmic p65 ratio, rep 2": 1.12, "low cell count flag": "enough cells to score"}
{"gene knocked down": "Shpk", "p65 translocation robust z-score": -0.78, "nuclear/cytoplasmic p65 ratio, rep 1": 1.52, "nuclear/cytoplasmic p65 ratio, rep 2": 1.29, "low cell count flag": "enough cells to score"}
{"gene knocked down": "Ttc34", "p65 translocation robust z-score": 0.17, "nuclear/cytoplasmic p65 ratio, rep 1": 1.55, "nuclear/cytoplasmic p65 ratio, rep 2": 1.62, "low cell count flag": "enough cells to score"}
